Consider 33 targets from the supplement of paper PMC10849652.

The chains behind the UniProt entries cited, without tags or fusion partners. Where a name states a change or a piece, a line headed by the entry shows the natural chain unless it says otherwise.
UniProt O95232: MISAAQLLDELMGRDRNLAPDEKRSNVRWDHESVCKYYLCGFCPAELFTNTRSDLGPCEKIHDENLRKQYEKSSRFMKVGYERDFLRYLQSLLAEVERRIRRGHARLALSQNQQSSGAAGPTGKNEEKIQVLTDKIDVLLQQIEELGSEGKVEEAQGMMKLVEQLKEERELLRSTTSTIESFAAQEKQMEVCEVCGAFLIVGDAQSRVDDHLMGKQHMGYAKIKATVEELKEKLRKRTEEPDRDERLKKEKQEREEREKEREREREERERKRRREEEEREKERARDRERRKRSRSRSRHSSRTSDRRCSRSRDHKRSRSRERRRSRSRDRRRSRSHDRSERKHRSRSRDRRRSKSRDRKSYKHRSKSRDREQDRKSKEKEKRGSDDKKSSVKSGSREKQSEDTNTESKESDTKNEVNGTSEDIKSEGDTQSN
UniProt Q9UPY8, whole entry, looked up: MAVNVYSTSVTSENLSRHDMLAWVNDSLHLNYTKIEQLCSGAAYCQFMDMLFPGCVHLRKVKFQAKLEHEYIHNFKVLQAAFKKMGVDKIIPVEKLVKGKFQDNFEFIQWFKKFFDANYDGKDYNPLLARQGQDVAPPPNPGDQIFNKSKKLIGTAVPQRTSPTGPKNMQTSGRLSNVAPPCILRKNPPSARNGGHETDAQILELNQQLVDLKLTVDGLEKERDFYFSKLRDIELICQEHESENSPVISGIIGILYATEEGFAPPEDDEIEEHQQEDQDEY
UniProt Q12851: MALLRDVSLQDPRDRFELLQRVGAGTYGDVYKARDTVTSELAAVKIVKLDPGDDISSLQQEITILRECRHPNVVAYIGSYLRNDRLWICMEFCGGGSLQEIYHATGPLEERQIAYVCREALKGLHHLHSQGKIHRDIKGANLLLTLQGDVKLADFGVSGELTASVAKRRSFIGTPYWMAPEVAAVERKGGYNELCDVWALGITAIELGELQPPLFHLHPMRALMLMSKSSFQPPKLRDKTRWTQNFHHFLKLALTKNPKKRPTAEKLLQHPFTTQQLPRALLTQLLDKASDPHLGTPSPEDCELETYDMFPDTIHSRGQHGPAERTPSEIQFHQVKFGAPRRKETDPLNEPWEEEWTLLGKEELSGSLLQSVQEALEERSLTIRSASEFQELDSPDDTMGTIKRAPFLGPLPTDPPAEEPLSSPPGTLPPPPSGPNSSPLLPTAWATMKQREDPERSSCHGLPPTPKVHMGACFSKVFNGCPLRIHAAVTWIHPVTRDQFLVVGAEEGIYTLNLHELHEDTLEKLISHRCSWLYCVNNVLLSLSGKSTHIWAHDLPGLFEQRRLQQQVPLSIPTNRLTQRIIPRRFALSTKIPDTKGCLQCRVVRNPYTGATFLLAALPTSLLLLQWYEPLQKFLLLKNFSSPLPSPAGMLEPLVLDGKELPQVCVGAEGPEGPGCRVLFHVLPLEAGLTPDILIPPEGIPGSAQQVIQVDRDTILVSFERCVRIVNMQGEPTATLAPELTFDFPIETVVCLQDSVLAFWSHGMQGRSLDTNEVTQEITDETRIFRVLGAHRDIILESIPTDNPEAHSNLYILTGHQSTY
UniProt Q9Y4K4: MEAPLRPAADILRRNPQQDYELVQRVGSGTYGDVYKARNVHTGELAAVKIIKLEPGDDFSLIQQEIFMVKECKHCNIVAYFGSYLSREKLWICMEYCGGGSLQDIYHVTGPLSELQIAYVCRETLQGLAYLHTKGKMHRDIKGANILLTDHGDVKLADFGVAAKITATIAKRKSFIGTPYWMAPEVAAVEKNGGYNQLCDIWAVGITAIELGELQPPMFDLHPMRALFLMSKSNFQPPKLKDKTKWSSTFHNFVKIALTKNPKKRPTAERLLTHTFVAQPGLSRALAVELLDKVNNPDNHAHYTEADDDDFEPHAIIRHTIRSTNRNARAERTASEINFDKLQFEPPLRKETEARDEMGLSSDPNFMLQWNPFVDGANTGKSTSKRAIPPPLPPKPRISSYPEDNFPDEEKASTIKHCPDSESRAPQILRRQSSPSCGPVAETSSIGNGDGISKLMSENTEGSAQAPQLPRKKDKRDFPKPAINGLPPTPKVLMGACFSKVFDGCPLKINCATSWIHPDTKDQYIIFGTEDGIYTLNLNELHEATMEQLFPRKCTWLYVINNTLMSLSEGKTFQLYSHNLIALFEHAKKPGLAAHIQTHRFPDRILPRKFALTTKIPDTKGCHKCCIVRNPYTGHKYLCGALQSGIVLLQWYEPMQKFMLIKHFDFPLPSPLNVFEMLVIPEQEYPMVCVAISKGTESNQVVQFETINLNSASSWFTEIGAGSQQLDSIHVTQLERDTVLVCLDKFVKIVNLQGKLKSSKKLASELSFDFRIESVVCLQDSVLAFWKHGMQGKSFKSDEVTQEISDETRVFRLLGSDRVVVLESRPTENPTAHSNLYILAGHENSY
UniProt Q14244: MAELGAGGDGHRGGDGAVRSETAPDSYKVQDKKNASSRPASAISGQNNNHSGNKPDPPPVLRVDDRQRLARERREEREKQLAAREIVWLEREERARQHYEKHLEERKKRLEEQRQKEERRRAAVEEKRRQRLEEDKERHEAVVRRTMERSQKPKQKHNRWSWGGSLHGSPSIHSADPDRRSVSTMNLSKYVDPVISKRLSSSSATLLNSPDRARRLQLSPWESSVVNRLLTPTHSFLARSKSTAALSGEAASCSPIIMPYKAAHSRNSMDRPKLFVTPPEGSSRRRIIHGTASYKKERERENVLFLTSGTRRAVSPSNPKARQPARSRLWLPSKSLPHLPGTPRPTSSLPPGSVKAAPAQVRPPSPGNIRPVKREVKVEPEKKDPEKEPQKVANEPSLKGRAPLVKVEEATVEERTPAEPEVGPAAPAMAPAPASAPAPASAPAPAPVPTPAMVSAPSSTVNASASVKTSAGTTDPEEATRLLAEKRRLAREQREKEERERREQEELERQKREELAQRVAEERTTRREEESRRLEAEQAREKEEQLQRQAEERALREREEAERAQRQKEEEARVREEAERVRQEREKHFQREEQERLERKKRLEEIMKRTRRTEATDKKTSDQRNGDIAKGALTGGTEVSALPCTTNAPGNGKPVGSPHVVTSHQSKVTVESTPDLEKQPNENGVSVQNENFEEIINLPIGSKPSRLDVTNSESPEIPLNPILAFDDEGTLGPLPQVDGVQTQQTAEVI
UniProt O60337: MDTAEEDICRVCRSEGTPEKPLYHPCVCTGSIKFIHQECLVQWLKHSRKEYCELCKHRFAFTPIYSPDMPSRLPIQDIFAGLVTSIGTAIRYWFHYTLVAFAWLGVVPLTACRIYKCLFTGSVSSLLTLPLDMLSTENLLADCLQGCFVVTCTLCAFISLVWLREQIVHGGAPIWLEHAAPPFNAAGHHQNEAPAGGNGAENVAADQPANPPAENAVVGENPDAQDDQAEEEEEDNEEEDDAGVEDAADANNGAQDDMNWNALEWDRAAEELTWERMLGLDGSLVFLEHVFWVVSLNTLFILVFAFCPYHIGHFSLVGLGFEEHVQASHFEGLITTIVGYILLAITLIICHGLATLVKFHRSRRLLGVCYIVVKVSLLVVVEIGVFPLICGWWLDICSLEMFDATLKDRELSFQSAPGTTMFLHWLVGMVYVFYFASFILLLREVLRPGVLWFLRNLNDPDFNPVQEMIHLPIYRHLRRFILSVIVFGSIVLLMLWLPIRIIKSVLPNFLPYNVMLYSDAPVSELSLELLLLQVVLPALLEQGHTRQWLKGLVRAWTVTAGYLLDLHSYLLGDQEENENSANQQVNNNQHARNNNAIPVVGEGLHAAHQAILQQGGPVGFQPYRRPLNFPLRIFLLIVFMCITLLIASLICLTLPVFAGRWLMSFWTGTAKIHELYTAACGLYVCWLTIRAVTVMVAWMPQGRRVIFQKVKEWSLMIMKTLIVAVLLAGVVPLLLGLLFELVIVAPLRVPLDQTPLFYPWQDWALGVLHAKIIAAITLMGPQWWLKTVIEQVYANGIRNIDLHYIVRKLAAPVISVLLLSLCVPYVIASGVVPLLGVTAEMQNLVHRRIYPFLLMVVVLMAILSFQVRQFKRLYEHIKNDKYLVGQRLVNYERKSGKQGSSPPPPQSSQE
UniProt Q8IWC1: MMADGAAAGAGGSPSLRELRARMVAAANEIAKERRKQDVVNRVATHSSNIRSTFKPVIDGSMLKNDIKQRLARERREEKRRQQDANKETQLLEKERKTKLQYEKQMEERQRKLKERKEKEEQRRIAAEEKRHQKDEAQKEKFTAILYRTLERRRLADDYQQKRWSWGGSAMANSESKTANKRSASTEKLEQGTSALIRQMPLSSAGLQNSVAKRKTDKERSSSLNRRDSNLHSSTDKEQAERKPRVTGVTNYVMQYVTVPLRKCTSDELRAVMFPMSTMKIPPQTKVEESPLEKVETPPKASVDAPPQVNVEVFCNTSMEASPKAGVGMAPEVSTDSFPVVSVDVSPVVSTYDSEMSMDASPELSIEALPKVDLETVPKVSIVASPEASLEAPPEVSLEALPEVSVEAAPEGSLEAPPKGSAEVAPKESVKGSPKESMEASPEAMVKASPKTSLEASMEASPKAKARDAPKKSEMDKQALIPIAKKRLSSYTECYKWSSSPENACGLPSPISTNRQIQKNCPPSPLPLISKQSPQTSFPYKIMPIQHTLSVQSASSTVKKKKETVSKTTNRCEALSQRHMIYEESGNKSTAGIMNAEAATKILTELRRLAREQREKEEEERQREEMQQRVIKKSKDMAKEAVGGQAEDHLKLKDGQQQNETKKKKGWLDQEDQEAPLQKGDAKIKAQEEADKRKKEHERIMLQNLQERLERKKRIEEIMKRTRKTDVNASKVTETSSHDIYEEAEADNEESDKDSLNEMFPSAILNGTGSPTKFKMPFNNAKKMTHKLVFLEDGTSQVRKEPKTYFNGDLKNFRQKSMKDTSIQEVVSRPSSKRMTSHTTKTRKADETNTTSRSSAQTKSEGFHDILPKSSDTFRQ
UniProt Q9Y5V3: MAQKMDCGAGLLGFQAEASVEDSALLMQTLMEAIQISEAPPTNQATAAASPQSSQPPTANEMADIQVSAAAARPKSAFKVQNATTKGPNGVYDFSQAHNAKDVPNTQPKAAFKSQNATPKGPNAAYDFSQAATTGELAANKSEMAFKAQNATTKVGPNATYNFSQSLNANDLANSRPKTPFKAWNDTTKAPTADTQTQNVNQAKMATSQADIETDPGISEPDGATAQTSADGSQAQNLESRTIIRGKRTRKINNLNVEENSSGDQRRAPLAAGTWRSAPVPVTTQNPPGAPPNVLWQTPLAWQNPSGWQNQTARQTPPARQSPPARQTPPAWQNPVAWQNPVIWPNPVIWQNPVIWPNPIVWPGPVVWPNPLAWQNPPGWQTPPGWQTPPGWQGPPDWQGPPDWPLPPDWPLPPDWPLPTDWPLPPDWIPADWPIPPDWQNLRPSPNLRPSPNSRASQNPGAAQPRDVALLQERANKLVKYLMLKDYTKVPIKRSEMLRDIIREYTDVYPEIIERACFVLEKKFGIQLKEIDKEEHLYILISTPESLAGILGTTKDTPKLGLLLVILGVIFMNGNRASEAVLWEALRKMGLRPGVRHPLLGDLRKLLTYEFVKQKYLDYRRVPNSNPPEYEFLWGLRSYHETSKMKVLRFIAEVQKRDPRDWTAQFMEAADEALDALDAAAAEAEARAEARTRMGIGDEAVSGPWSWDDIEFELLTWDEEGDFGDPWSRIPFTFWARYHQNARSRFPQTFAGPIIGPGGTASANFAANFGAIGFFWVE
UniProt Q16553: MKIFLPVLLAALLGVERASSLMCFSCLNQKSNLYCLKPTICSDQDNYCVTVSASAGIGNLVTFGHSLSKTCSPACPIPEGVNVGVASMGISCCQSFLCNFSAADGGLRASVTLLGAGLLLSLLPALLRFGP
UniProt Q9NQ48: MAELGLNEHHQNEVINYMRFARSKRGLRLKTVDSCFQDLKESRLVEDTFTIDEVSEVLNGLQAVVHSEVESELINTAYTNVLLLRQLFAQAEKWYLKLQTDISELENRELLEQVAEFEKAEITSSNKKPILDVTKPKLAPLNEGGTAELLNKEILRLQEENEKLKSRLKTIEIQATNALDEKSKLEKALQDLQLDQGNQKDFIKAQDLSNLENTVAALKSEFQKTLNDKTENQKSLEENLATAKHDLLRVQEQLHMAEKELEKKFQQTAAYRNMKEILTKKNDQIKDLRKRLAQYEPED
UniProt Q13257, whole entry, looked up: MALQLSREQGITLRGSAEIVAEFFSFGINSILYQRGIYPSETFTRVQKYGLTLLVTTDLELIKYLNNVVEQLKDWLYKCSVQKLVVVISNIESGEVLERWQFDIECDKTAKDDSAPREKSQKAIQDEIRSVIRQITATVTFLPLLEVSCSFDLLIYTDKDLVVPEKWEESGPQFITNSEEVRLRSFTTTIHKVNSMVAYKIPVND
UniProt Q9NQG1: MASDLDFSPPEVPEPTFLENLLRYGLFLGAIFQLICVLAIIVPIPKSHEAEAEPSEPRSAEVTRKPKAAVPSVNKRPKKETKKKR
UniProt O15525: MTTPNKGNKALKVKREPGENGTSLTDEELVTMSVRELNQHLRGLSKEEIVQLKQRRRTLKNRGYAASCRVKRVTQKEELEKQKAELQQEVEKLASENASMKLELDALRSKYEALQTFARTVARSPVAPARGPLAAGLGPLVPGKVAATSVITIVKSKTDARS

The other results are listed elsewhere or left out.

Compound in the first test: CCCS(=O)(=O)Nc1ccc(F)c(C(=O)c2c[nH]c3ncc(-c4ccc(Cl)cc4)cc23)c1F [vemurafenib]
Put plainly: log2 fold change, soluble protein after heating vs DMSO (PISA); higher = thermal stabilisation; K562 lysate, 10 uM; active = over 0.2 and 3.5 SD of the protein, either way, in both replicates (recomputed). The gist of the method: (§1)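 A 30 min treatment with 10 μM compound was applied to crude K562 extract at 1 mg/mL protein in PBS pH 7.4 with 1 mM MgCl2. Heating for 3 min spanned 48°C-58°C, after which aliquots were pooled, adjusted to 0.5% NP-40 at 4°C and spun at 21,000xg for 90 min. TMTpro 16plex LC-MS/MS of the supernatant, with channel sums equalised, gave values recorded as log-two fold change in thermal stability against solvent controls, from duplicates.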
For LUC7L3 (UniProt O95232), the log2 fold change was inactive: 0.023.
Still for that read-out and setting: next, MAP3K5 (UniProt Q99683): inactive: 0.078; MACF1, A0A0A6YYJ5: inactive: 0.062.
Same read-out and setting: the value for LTO1 (UniProt Q8WV07) was inactive: 0.019.
The same measure, in the same setting: the value for MANEA (UniProt Q5SRI9) was inactive: 0.035; that for MAPRE3 isoform 2 (UniProt Q9UPY8) was inactive: 0.092.
Take MAP4K2 (UniProt Q12851): the log2 fold change was inactive: 0.198.
Consider MAST2 (UniProt Q6P0Q8), for which the log2 fold change was inactive: 0.134.
For the target MAGI3 isoform 1 (UniProt Q5TCQ9), the log2 fold change was inactive: -0.006.
The same measure, in the same setting: next, MAML1 (UniProt Q92585): inactive: 0.21; MAP4 isoform 5 (UniProt P27816): inactive: -0.019.
The same measure, in the same setting: next, MAP4K5 (UniProt Q9Y4K4): inactive: 0.185; MAPK12 (UniProt P53778): inactive: 0.084.
The same measure, in the same setting: next, MAP7 (UniProt Q14244): inactive: -0.013; MARF1 (UniProt Q9Y4F3): inactive: -0.093.
MAP4 (UniProt E7EVA0): the log2 fold change was inactive: -0.019.
On the same count and under the same terms, next, MARCHF6 (UniProt O60337): inactive: 0.043.
Still for that read-out and setting: the value for LZTS2 (UniProt Q9BRK4) was inactive: 0.253.
The same measure, in the same setting: next, MAP7D3 (UniProt Q8IWC1): inactive: -0.153.
Consider MAGED1 isoform 2 (UniProt Q9Y5V3), for which the log2 fold change is inactive: 0.111.
For LY6E (UniProt Q16553), the log2 fold change is inactive: 0.068.
In the case of LZTFL1 (UniProt Q9NQ48), the log2 fold change is inactive: 0.013.
Same read-out and setting: next, M6PR (UniProt P20645): inactive: 0.003; MAD2L1 (UniProt Q13257): inactive: -0.017.

Compound in another test: CCCS(=O)(=O)Nc1ccc(F)c(C(=O)c2c[nH]c3ncc(Cl)cc23)c1F
The test is described as above. The gist of the method:
as §1
LUC7L3 (UniProt O95232): the log2 fold change is inactive: 0.003.
Same read-out and setting: next, MAP3K5 (UniProt Q99683): inactive: -0.015; MANEA (UniProt Q5SRI9): inactive: -0.019.
Same read-out and setting: next, MAPRE3 isoform 2 (UniProt Q9UPY8): inactive: -0.144; LTBP4 (UniProt Q8N2S1): inactive: -0.1; MANBAL (UniProt Q9NQG1): inactive: -0.03.
On the same count and under the same terms, the value for MAP4K2 (UniProt Q12851) was inactive: -0.038.
With MAST2 (UniProt Q6P0Q8), the log2 fold change is inactive: -0.062.
For MAGI3 isoform 1 (UniProt Q5TCQ9), the log2 fold change is inactive: 0.008.
The same measure, in the same setting: next, MAP4 isoform 5 (UniProt P27816): inactive: -0.035; MAP4K5 (UniProt Q9Y4K4): inactive: -0.011.
The same measure, in the same setting: next, MAP7 (UniProt Q14244): inactive: 0.
On the same count and under the same terms, the value for MAN2B2 (UniProt Q9Y2E5) was inactive: -0.028; that for MAP4 (UniProt E7EVA0) was inactive: 0.01.
As to MARCHF6 (UniProt O60337), the log2 fold change is inactive: 0.052.
For MACF1 (UniProt E9PLY5), the log2 fold change is inactive: -0.053.
With MAP4K4 isoform 6 (UniProt O95819), the log2 fold change is inactive: 0.073.
The same measure, in the same setting: next, LZTS2 (UniProt Q9BRK4): inactive: 0.054; LTBR (UniProt P36941): inactive: 0.047; MAP7D3 (UniProt Q8IWC1): inactive: -0.039.
Still for that read-out and setting: the value for MAFG (UniProt O15525) was inactive: 0.097; that for MAPK11 (UniProt Q15759) was inactive: 0.262.
MAGED1 isoform 2 (UniProt Q9Y5V3): the log2 fold change was inactive: 0.198.
Consider LY6E (UniProt Q16553), for which the log2 fold change is inactive: 0.026.
Same read-out and setting: next, LZTFL1 (UniProt Q9NQ48): inactive: 0.025; M6PR (UniProt P20645): inactive: 0.013; MAD2L1 (UniProt Q13257): inactive: 0.

Compound in another test: CCN(CCCOc1ccc2c(Nc3cc(CC(=O)Nc4cccc(F)c4)[nH]n3)ncnc2c1)CCOP(=O)(O)O [barasertib]
Described as above. In short, it runs like this:
as §1
Take LUC7L3 (UniProt O95232): the log2 fold change is inactive: 0.014.
For MAP3K5 (UniProt Q99683), the log2 fold change was inactive: 0.151.
For MACF1, A0A0A6YYJ5, the log2 fold change is inactive: 0.1.
The same measure, in the same setting: next, MAP4K3 (UniProt Q8IVH8): inactive: -0.03.
For LTO1 (UniProt Q8WV07), the log2 fold change was inactive: -0.108.
Same read-out and setting: next, MANEA (UniProt Q5SRI9): inactive: -0.071; MAPRE3 isoform 2 (UniProt Q9UPY8): inactive: -0.045.
The same measure, in the same setting: the value for LTBP4 (UniProt Q8N2S1) was inactive: -0.232.
Same read-out and setting: the value for MANBAL (UniProt Q9NQG1) was inactive: 0.013.
MAP4K2 (UniProt Q12851): the log2 fold change is inactive: 0.009.
Same read-out and setting: the value for MAST2 (UniProt Q6P0Q8) was inactive: 0.105; that for MAGI3 isoform 1 (UniProt Q5TCQ9) was inactive: 0; that for MAML1 (UniProt Q92585) was inactive: 0.089.
The same measure, in the same setting: next, MAP4 isoform 5 (UniProt P27816): inactive: -0.038.
For MAP4K5 (UniProt Q9Y4K4), the log2 fold change is inactive: 0.23.
Same read-out and setting: next, MAPK12 (UniProt P53778): inactive: -0.033; MAP7 (UniProt Q14244): inactive: 0.037; MARF1 (UniProt Q9Y4F3): inactive: 0.051.
Same read-out and setting: the value for MAN2B2 (UniProt Q9Y2E5) was inactive: -0.047; that for MAP4 (UniProt E7EVA0) was inactive: 0.04.
On the same count and under the same terms, next, MARCHF6 (UniProt O60337): inactive: 0.233; MACF1 (UniProt E9PLY5): inactive: -0.047; MAP4K4 isoform 6 (UniProt O95819): inactive: 0.06.
For LZTS2 (UniProt Q9BRK4), the log2 fold change is inactive: 0.081.
Still for that read-out and setting: next, LTBR (UniProt P36941): inactive: 0.086; MAP7D3 (UniProt Q8IWC1): inactive: -0.031.
With MAFG (UniProt O15525), the log2 fold change is inactive: 0.092.
The same measure, in the same setting: next, MAPK11 (UniProt Q15759): inactive: 0.129; MAGED1 isoform 2 (UniProt Q9Y5V3): inactive: 0.101; LY6E (UniProt Q16553): inactive: -0.02.
The same measure, in the same setting: next, LZTFL1 (UniProt Q9NQ48): inactive: 0.025; M6PR (UniProt P20645): inactive: -0.022.
On the same count and under the same terms, the value for MAD2L1 (UniProt Q13257) was inactive: 0.027.
